{
  "source": "patent US9018233B2",
  "about": "“Diaminoaryl derivatives substituted by carbamate and pesticidal composition containing same” (Kyung Nong Corporation, priority 2012, dated 2015)",
  "note": "Some entries share one result that the patent states for a list of compounds.",
  "data": [
    {"system": "Diamondback Moth (Plutella xylostella)", "test": "Insecticidal activities against diamondback moth measured by leaf-dip method", "format": "in vivo", "conditions": "100 ppm, after 3 days, 3rd instar larvae", "values": [
      {"compound": "CCOC(=O)Nc1cc(Cl)cc(Cl)c1NC(=O)c1cc(Br)nn1-c1ncccc1Cl", "note": "[Example 2, ethyl (2-(3-bromo-1-(3-chloropyridin-2-yl)-1H-pyrazole-5-carboxamido)-3,5-dichlorophenyl)carbamate]", "control value": "at least 80%"},
      {"compound": "CC(C)OC(=O)Nc1cc(Cl)cc(Cl)c1NC(=O)c1cc(Br)nn1-c1ncccc1Cl", "note": "[Example 3, isopropyl (2-(3-bromo-1-(3-chloropyridin-2-yl)-1H-pyrazole-5-carboxamido)-3,5-dichlorophenyl)carbamate]", "control value": "at least 80%"},
      {"compound": "COC(=O)Nc1cc(Cl)cc(Cl)c1NC(=O)c1cc(Br)nn1-c1ncccc1Cl", "note": "[Example 1, Methyl (2-(3-bromo-1-(3-chloropyridin-2-yl)-1H-pyrazole-5-carboxamido)-3,5-dichlorophenyl)carbamate]", "control value": "at least 80%"},
      {"compound": "CC(C)COC(=O)Nc1cc(Cl)cc(Cl)c1NC(=O)c1cc(Br)nn1-c1ncccc1Cl", "note": "[Example 4, isobutyl (2-(3-bromo-1-(3-chloropyridin-2-yl)-1H-pyrazole-5-carboxamido)-3,5-dichlorophenyl)carbamate]", "control value": "at least 80%"}
    ]}
  ]
}
